# Results deposited as PubChem BioAssay AID1053208 (Peter MacCallum Cancer Centre, 2014)
# Purpose: 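Genes whose silencing cuts survival of bone tumour cells only with doxorubicin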 (primary screen)
# Cells: mouse osteosarcoma cells, early-passage culture from an engineered mouse model of fibroblastic bone tumour
# Reagents: siRNA pool against mouse genes, 40 nM
# Duration: about 120 h (48 h before drug, then 72 h with drug)
# Challenge: doxorubicin 100 nM for 72 h, roughly 30-40% inhibitory dose
# Measurement: 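Viability read as ATP luminescence after 72 h of 100 nM doxorubicin or none, duplicate wells averaged, scaled to non-targeting siRNA, then expressed as robust z-scores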
# Scale: viability z-score with doxorubicin and doxorubicin viability vs non-targeting: higher = more viable cells under doxorubicin; viability z-score without drug: higher = more viable cells with knock-down alone; z-score of drug to no-drug ratio: higher = less drug sensitisation by knock-down
# Active means: 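Called active if knock-down leaves viability unchanged without drug (z within -2 to 2) but lowers it with doxorubicin (z at or under -2)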
# Shown is a random part of about 17,000 reagents tested. Of all reagents, 788 (4.7%) are marked active. 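Calls rest on z-score classes alone; an extra cut-off of viability at most 70% of control was not applied to them.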 A number with no mark means an inactive call.
gene knocked down,combined z-score class,viability z-score with doxorubicin,viability z-score without drug,z-score of drug to no-drug ratio,doxorubicin viability vs non-targeting
Rmp24,no change with or without drug,-0.45,0.17,-0.45,0.9
Zfp87,no change with or without drug,1.24,0.17,1.24,1.05
Zfta,no change with or without drug,0.67,1.18,0,1
Bhlha9,no change with or without drug,0,-0.34,0.34,0.94
Gltp,no change with or without drug,-0.56,-0.51,-0.11,0.89
Stip1,no change with or without drug,-1.12,-1.35,-0.11,0.84
Gtf2h4,no change with or without drug,-0.67,-0.51,-0.22,0.88
Mvb12b,no change with or without drug,0.56,-0.51,1.12,0.99
Foxl2,no change with or without drug,-0.9,-0.51,-0.56,0.86
Aco1,no change with or without drug,-1.01,-0.51,-0.67,0.85
Vmn1r13,no change with or without drug,-0.11,0.51,-0.34,0.93
Spp2,no change with or without drug,1.91,0.51,1.69,1.11
Tubb2b,no change with or without drug,-0.22,1.18,-0.9,0.92
Pianp,no change with or without drug,0.22,0.84,-0.22,0.96
Ncdn,no change with or without drug,0.22,0.51,0,0.96
Clca3a2,no change with or without drug,-1.91,-1.01,-1.24,0.77
Or8g27,no change with or without drug,-1.57,-1.18,-0.79,0.8
Or10ag57,no change with or without drug,-0.79,-0.51,-0.34,0.87
9530056K15Rik,no change with or without drug,-0.34,-0.17,-0.11,0.91
Bpifa1,low cell count with and without drug,-2.25,-3.2,-0.11,0.74
Tmem127,no change with or without drug,0.56,1.52,-0.34,0.99
Tmed3,no change with or without drug,1.35,0.51,1.12,1.06
Rit1,high cell count without drug only,1.69,2.02,0.45,1.09
Rab40c,no change with or without drug,1.69,1.01,1.12,1.09
Hps6,low cell count with doxorubicin only (active),-2.92,-0.67,-2.59,0.68
Sar1b,no change with or without drug,-1.35,-0.51,-1.01,0.82
Smtnl2,no change with or without drug,0.9,0.34,0.79,1.02
Lyar,no change with or without drug,0.45,-0.51,1.01,0.98
Rif1,no change with or without drug,0.67,0.51,0.45,1
Rnaseh1,no change with or without drug,-0.67,0,-0.56,0.88
Mrgprb5,no change with or without drug,-0.79,-1.35,0.22,0.87
Lair1,high cell count without drug only,0.22,2.36,-1.12,0.96
Gtf2h5,low cell count with doxorubicin only (active),-2.02,-0.51,-1.69,0.76
St6galnac2,high cell count without drug only,-0.56,2.36,-1.8,0.89
Gnai2,no change with or without drug,-1.12,-0.51,-0.79,0.84
Nectin2,no change with or without drug,0.9,-0.84,1.69,1.02
Spast,no change with or without drug,1.12,0.84,0.67,1.04
Coro1c,no change with or without drug,0.67,0.17,0.67,1
Apoh,no change with or without drug,1.12,-0.34,1.57,1.04
Lyplal1,no change with or without drug,0.22,0.51,0,0.96
Itih2,no change with or without drug,-1.57,-1.01,-0.9,0.8
Il6st,no change with or without drug,-0.34,0.17,-0.34,0.91
Hnrnpul1,no change with or without drug,1.35,-0.51,1.91,1.06
Platr26,no change with or without drug,0.9,0.84,0.45,1.02
Rbsn,no change with or without drug,0,-0.17,0.22,0.94
Lrrfip1,low cell count with doxorubicin only (active),-2.14,-1.52,-1.24,0.75
Ephb4,no change with or without drug,-0.45,-1.35,0.56,0.9
Slc6a20b,no change with or without drug,1.35,1.18,0.67,1.06
Pou3f1,no change with or without drug,1.35,1.01,0.79,1.06
Ube2l3,no change with or without drug,-0.9,-0.84,-0.22,0.86

Active calls (from the list above):
gene knocked down,combined z-score class,viability z-score with doxorubicin,viability z-score without drug,z-score of drug to no-drug ratio,doxorubicin viability vs non-targeting
Hps6,low cell count with doxorubicin only (active),-2.92,-0.67,-2.59,0.68
Gtf2h5,low cell count with doxorubicin only (active),-2.02,-0.51,-1.69,0.76
Lrrfip1,low cell count with doxorubicin only (active),-2.14,-1.52,-1.24,0.75
